No constants are given. Whether binding was seen depends on the method and setting. Binding seen in cells or lysates may run through a third protein. Binding calls can cover weak binding; strength is not graded here. Sequences can lack the tags named with a protein.
Biological target: OsPAD4-nYFP (rice)
Assay: split reporter; BiFC in rice variety Zhonghua 11 stem protoplasts co-transformed with nYFP and cYFP constructs; confocal microscopy

binding: binds
B1: AtEDS1-cYFP (protein, UniProt Q9SU72-1 1-623)
chain: MAFEALTGINGDLITRSWSASKQAYLTERYHKEEAGAVVIFAFQPSFSEKDFFDPDNKSSFGEIKLNRVQFPCMRKIGKGDVATVNEAFLKNLEAIIDPRTSFQASVEMAVRSRKQIVFTGHSSGGATAILATVWYLEKYFIRNPNVYLEPRCVTFGAPLVGDSIFSHALGREKWSRFFVNFVSRFDIVPRIMLARKASVEETLPHVLAQLDPRKSSVQESEQRITEFYTRVMRDTSTVANQAVCELTGSAEAFLETLSSFLELSPYRPAGTFVFSTEKRLVAVNNSDAILQMLFYTSQASDEQEWSLIPFRSIRDHHSYEELVQSMGKKLFNHLDGENSIESTLNDLGVSTRGRQYVQAALEEEKKRVENQKKIIQVIEQERFLKKLAWIEDEYKPKCQAHKNGYYDSFKVSNEENDFKANVKRAELAGVFDEVLGLMKKCQLPDEFEGDIDWIKLATRYRRLVEPLDIANYHRHLKNEDTGPYMKRGRPTRYIYAQRGYEHYILKPNGMIAEDVFWNKVNGLNLGLQLEEIQETLKNSGSECGSCFWAEVEELKGKPYEEVEVRVKTLEGMLGEWITDGEVDDKEIFLEGSTFRKWWITLPKNHKSHSPLRDYMMDEITDT
